## Primary screen of a compound library

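Whole-cell assay for inhibitors of Mycobacterium tuberculosis growth, labelled Cornell in the record; the read-out is not stated. The concentration is filed as 10 mM, unlikely as a test dose, so the dose is not known. Higher means stronger inhibition (inferred from two other growth screens of the library). Size under these conditions: about 53,000 compounds, about 900 of them at 50% or above in at least one test.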

Values are the deposited “Percent Effect”, in %. How 0% and 100% were set is not recorded. Most values in the screen are low, and negative values occur. This is an unselected part of the compounds tested.

structure | percent effect
CC(C)N1CCC(C(=O)N2CCC(c3ccc(F)cc3)C2)CC1 (stereo not given) | 20.27%
CCN(Cc1ccccc1)S(=O)(=O)C1CCS(=O)(=O)CC1 | 11.98%
Cc1ccc2c(c1)CN(C(=O)c1cccnc1)C(CN(C)C)CO2.Cl (stereo not given) | 2.792%
CCc1ncc(C(=O)NC(C)(C)C(=O)OC)s1 | -55.78%
Cn1nc(CNC(=O)c2nc3ccccc3s2)c2c1CCOC2 | 9.804%
CC(C)CNC(=O)CCN1C(=O)CCc2cc(F)ccc21 | 2.402%
O=C(Nc1cnn(COc2ccc(F)cc2Cl)c1)C1CC1 | 24.96%
Cc1nn(CCNS(=O)(=O)c2ccccc2)c(C)c1Cl | 12.38%
CS(=O)(=O)N1CC(c2ncn3ccccc23)C1 | 20.23%
CCn1c(CC2CCN(C(=O)C3CCOC3)CC2)nn(C)c1=O (stereo not given) | -26.77%
CCN(C)C(=O)c1ncn2c(C3CCN(S(C)(=O)=O)CC3)ccnc12 | 23.58%
CN1CCOC(C)(C(=O)Nc2nc(C(C)(C)C)cs2)C1 (stereo not given) | -31.56%
O=C(CCC1CCCO1)N1CCc2nc(-c3cnccn3)nc(O)c2C1 (stereo not given) | -1.5%
CC(C)CN1CCc2[nH]cnc2C12CCN(C(=O)c1cccnc1)CC2 | 2.174%
CN1CCC(N(C)C(=O)CSc2ccc(F)c(F)c2)C1=O (stereo not given) | -66.94%
Cc1noc(CS(=O)(=O)C/C=C/c2ccccc2)n1 | 6.287%
Cc1occc1C(=O)NCC(=O)NCCOc1cccc(Cl)c1 | -11.08%
N#Cc1cn(CCCN2CCc3ccccc32)c(=O)[nH]c1=O | -16.52%
CC(C)COC(C)C(=O)N1CCC(C)CC1 (stereo not given) | 5.852%
Cc1ccc2[nH]c(CN3CC[C@@H](N4CCN(C)CC4)[C@H](O)C3)c(C)c2c1 | 23.81%
COCC(=O)NC(c1ccccc1)c1ccc2c(c1)CCCO2 (stereo not given) | 34.89%
COCCCN(CCOC)C(=O)Nc1ccc(Br)cc1 | 14.88%
COCCCNC(=O)N1CCN(C(=O)c2nsc3ccc(C)cc23)CC1 | 1.346%
[H][C@@]12CCC(=O)N(CCCOC)[C@]1([H])CCN(Cc1ccc3occc3c1)C2 | -10.86%
O=C(O)C(F)(F)F.[H][C@]12CCN(CCOC)[C@@]1([H])CC[C@H](COCC(=O)N1CCCC1)O2 | -24.65%
CO[C@@H]1CCN(C(=O)Cc2ccc(F)cc2)[C@@H]1Cc1cccnc1.O=C(O)C(F)(F)F | 13.47%
CCN1CCN(CC(O)c2ccc(OC(F)(F)F)cc2)CC1 (stereo not given) | -18.58%
Cc1cc(C)n(Cc2cccc(C(=O)NCCSCC(C)(C)O)c2)n1 | -42.86%
Cc1cncc(C(=O)N2CCCC(O)(CO)C2)c1 (stereo not given) | -5.499%
CCS(=O)(=O)N1CCc2onc(COc3ccccn3)c2C1.O=C(O)C(F)(F)F | 35.1%
CCCOCCN1CCN(c2ncnc3[nH]ccc23)CC1 | 27.29%
CN1CCN(C(=O)C2CCCc3[nH]ncc32)CC1 (stereo not given) | -18.95%
COc1c(C)cc(C(C(=O)O)N(C)Cc2ccn[nH]2)cc1C (stereo not given) | 14.99%
O=C(NCC1CCOC1)N1CCN(c2ncccn2)CC1 (stereo not given) | 14.49%
COCCN1CCN(Cc2noc(C3CC3)n2)CC1C (stereo not given) | -22.32%
Cc1ncc(CN2CCc3c(nc(-c4ccccn4)[nH]c3=O)C2)n1C | 18.93%
CC(C)Nc1ncnc2c1CCN(C(=O)c1ccccc1F)CC2.O=C(O)C(F)(F)F | 17.41%
CCC(c1ccccc1)S(=O)(=O)CCO (stereo not given) | -20.37%
c1ccc(-c2cc(CNCCN3CCOCC3)c3nnnn3c2)cc1 | -16.18%
O=C(O)C(F)(F)F.O=C(O)C(F)(F)F.O=C(O)c1c(-c2cccnc2)ncc2c1CCN(Cc1ccccn1)C2 | -51.27%
COCCN1CCC(c2nc3cc(C)ccc3[nH]2)CC1 | 19.1%
CN(C)S(=O)(=O)N1CCC2(CC1)CC(OCC1CC1)CO2 (stereo not given) | -13.97%
COc1ccc(CNC(=O)c2ccc(Br)cn2)cc1 | 8.291%
Cc1nc(-c2c(C)noc2C)cc(C2CCN(S(=O)(=O)N(C)C)CC2)n1 | 2.37%
O=C(O)C(F)(F)F.[H][C@@]12C[C@@H](c3nc(C4CC4)cs3)O[C@]1([H])CN(C(=O)c1ccnnc1)C2 | 1.423%
O=C(CC1CCN(c2cccnn2)CC1)NCCO | 12.72%
CC(=O)N1N=C(c2ccco2)OC1C(=O)NCCc1ccc(O)cc1 (stereo not given) | -5.146%
CC(=O)Nc1nc(C2CCN(C(=O)c3ccncc3)CC2)cs1 | -12.38%
NC(=O)c1cnc(NCC(=O)NCc2ccccc2)c(Cl)c1 | -7.68%
CC(CCc1cccn1C)NC(=O)Nc1cccn(C)c1=O (stereo not given) | -10.99%
[H][C@@]12CCN(C3CCOCC3)[C@]1([H])CC[C@@H](c1nnc(C)o1)O2 | -36.17%
CCN1CCN(C(=O)c2nc(C)n(-c3ccccc3Cl)n2)CC1 | 15.47%
Cc1nn(C)c(C)c1C1CCCN1CC(=O)NCc1ccccn1 (stereo not given) | -15.28%
Cn1cc(CN2CCCC3(CCN(Cc4ccncc4)C3=O)C2)cn1 (stereo not given) | -33.34%
COc1c(CNCc2cccc(Cn3ccnc3C)c2)c(C)nn1C.Cl | -2.488%
O=C(O)C(F)(F)F.O=C(O)C(F)(F)F.O=c1ccc2c(n1Cc1cccnc1)CCN(Cc1ccoc1)CC2 | 15.39%
NC(=O)C1CCCN1C(=O)c1cccc2c1OCO2 (stereo not given) | -26.79%
O[C@@H]1CN(CC2=Cc3cc(Cl)ccc3OC2)CC[C@H]1N1CCCCCC1 | 26.21%
CCc1ncc2c(n1)CN(C(=O)c1c(C)[nH]c(C(C)=O)c1C)C2 | 30.38%
CC(C)N(C)Cc1cncc2c1CCN(C1CCOCC1)C2.Cl.Cl.Cl | 7.598%
[H][C@@]12COC[C@]1(c1nc(C)no1)CN(S(=O)(=O)N(C)C)C2 | -50.04%
O=C(c1cnc(Cc2c(Cl)cccc2Cl)nc1O)N1CCNCC1 | 11.84%
CCCc1cc(NC2CCc3nc(C)nn3C2)n2ncnc2n1 (stereo not given) | 16.87%
CCC1CN(C(=O)c2csc(-c3cnn(C)c3)n2)CCO1 (stereo not given) | 17.02%
CCOCc1cccc(NCc2c[nH]nc2-c2cccnc2)c1 | 29.66%
CCOCC(O)CN1CCN(C(=O)c2cnc3n[nH]c(C)c3c2)CC1 (stereo not given) | -15.55%
CC(=O)c1c(F)cccc1NCC(O)C1CC1 (stereo not given) | 13.67%
Cc1ccc(CCNC(=O)NCc2cccc(OC(F)F)c2)cn1 | 7.076%
Cc1nn(C)cc1CN(C)C(=O)c1cccnc1 | 5.414%
Cc1cc(C(F)(F)F)nc(CCNC(C)Cn2nc(C)cc2C)n1 (stereo not given) | 15%
C[C@@H]1CN(C(=O)CCc2nncn2C)C[C@@]1(O)C1CCC1 | 3.522%
CCn1ncc2c1CCCC2NCc1ccccc1N1CCOCC1 (stereo not given) | -5.542%

The last 9 entries again:

structure	percent effect
CCC1CN(C(=O)c2csc(-c3cnn(C)c3)n2)CCO1 (stereo not given)	17.02%
CCOCc1cccc(NCc2c[nH]nc2-c2cccnc2)c1	29.66%
CCOCC(O)CN1CCN(C(=O)c2cnc3n[nH]c(C)c3c2)CC1 (stereo not given)	-15.55%
CC(=O)c1c(F)cccc1NCC(O)C1CC1 (stereo not given)	13.67%
Cc1ccc(CCNC(=O)NCc2cccc(OC(F)F)c2)cn1	7.076%
Cc1nn(C)cc1CN(C)C(=O)c1cccnc1	5.414%
Cc1cc(C(F)(F)F)nc(CCNC(C)Cn2nc(C)cc2C)n1 (stereo not given)	15%
C[C@@H]1CN(C(=O)CCc2nncn2C)C[C@@]1(O)C1CCC1	3.522%
CCn1ncc2c1CCCC2NCc1ccccc1N1CCOCC1 (stereo not given)	-5.542%

From ChEMBL document CHEMBL3988442, “University of Dundee, Small-Polar-MMV Screening Library” (2021).